The source of these data is PMC12231660.

No constants are given. Whether binding was seen depends on the method and setting. Binding seen in cells or lysates may run through a third protein. Some results given as binding are weak or reduced against the parent protein; the word gives no strength.

This assay has as its target T1, Kynureninase (KYNU) (human (endogenous in Ishikawa)) (UniProt Q16719).
T1 sequence: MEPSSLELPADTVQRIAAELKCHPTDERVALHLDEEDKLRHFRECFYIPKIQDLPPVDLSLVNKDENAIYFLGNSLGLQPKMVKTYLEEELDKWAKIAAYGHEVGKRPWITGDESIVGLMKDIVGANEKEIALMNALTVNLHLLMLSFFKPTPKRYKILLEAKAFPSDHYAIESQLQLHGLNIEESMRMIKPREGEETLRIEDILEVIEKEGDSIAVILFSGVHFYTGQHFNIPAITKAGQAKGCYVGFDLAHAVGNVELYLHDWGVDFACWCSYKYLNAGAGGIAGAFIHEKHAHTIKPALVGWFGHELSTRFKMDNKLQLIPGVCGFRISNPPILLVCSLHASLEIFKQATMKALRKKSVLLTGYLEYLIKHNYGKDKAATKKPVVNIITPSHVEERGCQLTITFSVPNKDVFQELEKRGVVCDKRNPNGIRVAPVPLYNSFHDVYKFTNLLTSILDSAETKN
The assay is described as follows: co-IP; Pierce Co-IP Kit; 50 ug of antibodies against KYNU and SOD2 (normal IgG as negative control) covalently coupled to amine-reactive agarose resin; lysates of ECCs and ECSCs in IP lysis buffer incubated with the resin overnight at 4 °C; western blot. A general note: Immunoblotting shows a protein as a band on a membrane.

B1: superoxide dismutase 2 (SOD2) (enzyme, UniProt P04179 25-222)
chain: KHSLPDLPYDYGALEPHINAQIMQLHHSKHHAAYVNNLNVTEEKYQEALAKGDVTAQIALQPALKFNGGGHINHSIFWTNLSPNGGGEPKGELLEAIKRDFGSFDKFKEKLTAASVGVQGSGWGWLGFNKERGHLQIAACPNQDPLQGTTGLIPLLGIDVWEHAYYLQYKNVRPDYLKAIWNVINWENVTERYMACKK
Regarding B1, the binding result is “binds”.
